Laboratory results: article PMC4829432, “T-box3 is a ciliary protein and regulates stability of the Gli3 transcription factor to control digit number” (eLife, 2016)
No constants are given. Whether binding was seen depends on the method and setting. In cells and extracts the contact can be indirect. Some binding calls cover weakened binding; strength is not graded here. For part of these data: Sequences can lack the tags named with a protein.

By UniProt entry, the sequences of proteins in these tests, tags left out.
UniProt Q61602: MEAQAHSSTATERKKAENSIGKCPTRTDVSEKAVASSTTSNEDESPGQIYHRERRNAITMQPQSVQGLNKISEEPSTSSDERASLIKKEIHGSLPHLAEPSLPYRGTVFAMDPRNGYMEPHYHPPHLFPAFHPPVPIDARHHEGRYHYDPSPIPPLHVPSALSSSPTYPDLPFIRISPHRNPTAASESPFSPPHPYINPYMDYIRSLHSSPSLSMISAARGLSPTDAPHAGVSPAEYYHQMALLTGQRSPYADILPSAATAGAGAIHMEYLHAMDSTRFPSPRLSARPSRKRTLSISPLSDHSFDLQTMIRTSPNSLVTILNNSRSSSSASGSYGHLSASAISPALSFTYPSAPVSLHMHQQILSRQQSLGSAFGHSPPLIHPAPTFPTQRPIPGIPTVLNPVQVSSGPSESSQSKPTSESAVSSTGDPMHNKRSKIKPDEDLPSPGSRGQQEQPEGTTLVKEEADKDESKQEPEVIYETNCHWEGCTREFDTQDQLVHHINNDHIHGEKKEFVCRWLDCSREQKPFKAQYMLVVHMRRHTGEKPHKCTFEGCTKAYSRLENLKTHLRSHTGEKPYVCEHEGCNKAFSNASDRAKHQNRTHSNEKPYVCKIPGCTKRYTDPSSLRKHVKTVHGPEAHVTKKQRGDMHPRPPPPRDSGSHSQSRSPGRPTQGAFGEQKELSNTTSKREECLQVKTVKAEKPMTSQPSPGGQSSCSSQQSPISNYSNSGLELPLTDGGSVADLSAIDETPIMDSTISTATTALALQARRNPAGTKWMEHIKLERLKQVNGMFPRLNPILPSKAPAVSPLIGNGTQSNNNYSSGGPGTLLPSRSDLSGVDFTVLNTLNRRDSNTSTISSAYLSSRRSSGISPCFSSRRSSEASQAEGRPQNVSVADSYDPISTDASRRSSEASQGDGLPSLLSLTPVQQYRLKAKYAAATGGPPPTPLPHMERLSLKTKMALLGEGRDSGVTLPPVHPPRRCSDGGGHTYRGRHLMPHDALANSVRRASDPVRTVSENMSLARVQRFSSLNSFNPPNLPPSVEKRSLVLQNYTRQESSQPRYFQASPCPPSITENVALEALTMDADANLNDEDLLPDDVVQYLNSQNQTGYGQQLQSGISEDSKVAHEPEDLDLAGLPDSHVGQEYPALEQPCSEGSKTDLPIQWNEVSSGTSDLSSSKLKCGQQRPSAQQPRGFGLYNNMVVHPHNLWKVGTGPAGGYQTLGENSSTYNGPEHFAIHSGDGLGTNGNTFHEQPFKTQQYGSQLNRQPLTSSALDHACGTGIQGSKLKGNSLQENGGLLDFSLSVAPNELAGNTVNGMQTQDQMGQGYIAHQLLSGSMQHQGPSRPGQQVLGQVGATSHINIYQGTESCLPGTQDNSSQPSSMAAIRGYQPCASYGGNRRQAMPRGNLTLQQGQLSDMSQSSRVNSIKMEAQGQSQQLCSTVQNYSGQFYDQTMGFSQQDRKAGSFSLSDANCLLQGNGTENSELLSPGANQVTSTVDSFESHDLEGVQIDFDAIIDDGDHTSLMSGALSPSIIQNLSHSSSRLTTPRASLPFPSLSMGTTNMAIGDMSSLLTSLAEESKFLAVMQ

Tests used:
[1] = biological target: T1, Suppressor of fused (Sufu), endogenous mouse protein (mouse (endogenous in E10.5 embryos)) (UniProt Q9Z0P7); experiment: co-IP; endogenous proteins; E10.5 whole mouse embryo lysates in Dignam buffer C, control (wt) embryos; Sufu-Gli3, Sufu-Kif7 and Tbx3-Spop also assayed in Tbx3 null (Tbx3 delta-fl/delta-fl, ko) embryos, where less Sufu-Gli3 and Sufu-Kif7 co-precipitated; 5-10 ug antibody overnight at 4 C, Protein-G Dynal beads, immunoblot, densitometry
T1 sequence: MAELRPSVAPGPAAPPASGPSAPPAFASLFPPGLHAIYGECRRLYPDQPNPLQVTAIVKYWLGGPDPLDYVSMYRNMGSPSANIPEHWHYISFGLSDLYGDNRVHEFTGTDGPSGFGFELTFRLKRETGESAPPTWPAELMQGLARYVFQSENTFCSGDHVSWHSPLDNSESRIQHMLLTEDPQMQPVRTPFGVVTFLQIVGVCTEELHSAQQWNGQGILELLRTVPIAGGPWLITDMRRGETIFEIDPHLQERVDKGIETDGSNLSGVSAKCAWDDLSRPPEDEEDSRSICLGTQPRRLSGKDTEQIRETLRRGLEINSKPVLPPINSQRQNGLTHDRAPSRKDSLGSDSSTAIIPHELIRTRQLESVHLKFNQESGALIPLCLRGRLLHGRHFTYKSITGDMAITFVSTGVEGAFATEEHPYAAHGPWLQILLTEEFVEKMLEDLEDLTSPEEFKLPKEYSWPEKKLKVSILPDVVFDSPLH

[2] = biological target: Gli3, endogenous mouse protein as precipitated by anti-Gli3 (Gli3FL and Gli3R not told apart) (mouse (endogenous in E10.5 embryos)) (UniProt Q61602); experiment: co-IP; as a4, but lysates of Tbx3 null (Tbx3 delta-fl/delta-fl, ko) E10.5 embryos; Kif7-Gli3 co-precipitate compared with control (wt) embryos by densitometry
[3] = biological target: T2, Flag-tagged Kif7 (UniProt B7ZNG0); experiment: co-IP; Myc- and Flag-tagged proteins overexpressed together in HEK293 cells; lysates in Dignam buffer C; IP for Flag or Myc, immunoblot for Tbx3, Kif7 or Gli3
T2 sequence: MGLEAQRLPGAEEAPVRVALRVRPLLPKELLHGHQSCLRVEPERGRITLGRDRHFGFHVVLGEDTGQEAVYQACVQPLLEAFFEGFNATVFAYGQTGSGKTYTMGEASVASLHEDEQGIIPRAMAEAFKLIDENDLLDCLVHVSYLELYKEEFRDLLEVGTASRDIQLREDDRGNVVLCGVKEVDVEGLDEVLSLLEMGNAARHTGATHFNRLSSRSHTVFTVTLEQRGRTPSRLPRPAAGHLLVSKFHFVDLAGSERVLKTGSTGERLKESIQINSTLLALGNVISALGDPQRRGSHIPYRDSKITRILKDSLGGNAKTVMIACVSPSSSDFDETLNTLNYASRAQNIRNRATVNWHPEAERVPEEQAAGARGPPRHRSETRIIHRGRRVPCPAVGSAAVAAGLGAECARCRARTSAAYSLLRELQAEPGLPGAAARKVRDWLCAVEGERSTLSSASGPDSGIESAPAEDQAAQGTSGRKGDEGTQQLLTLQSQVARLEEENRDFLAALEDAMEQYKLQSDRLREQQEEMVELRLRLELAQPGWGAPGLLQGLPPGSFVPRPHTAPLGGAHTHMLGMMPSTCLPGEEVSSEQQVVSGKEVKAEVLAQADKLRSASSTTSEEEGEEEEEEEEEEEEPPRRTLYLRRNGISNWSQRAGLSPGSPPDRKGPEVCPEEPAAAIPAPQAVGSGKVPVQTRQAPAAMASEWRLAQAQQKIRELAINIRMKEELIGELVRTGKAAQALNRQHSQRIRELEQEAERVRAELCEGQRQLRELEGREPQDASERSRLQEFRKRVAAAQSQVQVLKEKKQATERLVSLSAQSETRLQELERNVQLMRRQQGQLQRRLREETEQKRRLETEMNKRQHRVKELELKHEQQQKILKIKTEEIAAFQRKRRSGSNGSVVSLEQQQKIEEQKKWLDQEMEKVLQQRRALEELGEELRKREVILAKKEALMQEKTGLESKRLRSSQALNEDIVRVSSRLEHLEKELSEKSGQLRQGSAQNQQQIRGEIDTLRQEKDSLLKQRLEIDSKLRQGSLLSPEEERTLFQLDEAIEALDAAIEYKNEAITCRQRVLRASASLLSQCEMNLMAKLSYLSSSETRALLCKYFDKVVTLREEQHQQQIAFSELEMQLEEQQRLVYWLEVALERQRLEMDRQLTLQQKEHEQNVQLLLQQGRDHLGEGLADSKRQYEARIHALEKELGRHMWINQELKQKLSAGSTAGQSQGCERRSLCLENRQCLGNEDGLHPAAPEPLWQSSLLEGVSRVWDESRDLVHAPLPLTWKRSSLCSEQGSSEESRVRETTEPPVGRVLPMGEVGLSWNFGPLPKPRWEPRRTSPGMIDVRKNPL

Row | Binder | binding [1] | binding [2] | binding [3]
1 | Kif7, endogenous mouse protein (natural protein, mouse (endogenous in E10.5 embryos), UniProt B7ZNG0 1-1348, looked up, Kif7, ciliary kinesin family protein, mouse, endogenous in E10.5 forelimb buds and whole embryos; source: endogenous, E10.5 mouse forelimb bud lysate or E10.5 whole embryo lysate (control or Tbx3 null)) MGLEAQRLPGAEEAPVRVALRVRPLLPKELLHGHQSCLRVEPERGRITLGRDRHFGFHVVLGEDTGQEAVYQACVQPLLEAFFEGFNATVFAYGQTGSGKTYTMGEASVASLHEDEQGIIPRAMAEAFKLIDENDLLDCLVHVSYLELYKEEFRDLLEVGTASRDIQLREDDRGNVVLCGVKEVDVEGLDEVLSLLEMGNAARHTGATHFNRLSSRSHTVFTVTLEQRGRTPSRLPRPAAGHLLVSKFHFVDLAGSERVLKTGSTGERLKESIQINSTLLALGNVISALGDPQRRGSHIPYRDSKITRILKDSLGGNAKTVMIACVSPSSSDFDETLNTLNYASRAQNIRNRATVNWHPEAERVPEEQAAGARGPPRHRSETRIIHRGRRVPCPAVGSAAVAAGLGAECARCRARTSAAYSLLRELQAEPGLPGAAARKVRDWLCAVEGERSTLSSASGPDSGIESAPAEDQAAQGTSGRKGDEGTQQLLTLQSQVARLEEENRDFLAALEDAMEQYKLQSDRLREQQEEMVELRLRLELAQPGWGAPGLLQGLPPGSFVPRPHTAPLGGAHTHMLGMMPSTCLPGEEVSSEQQVVSGKEVKAEVLAQADKLRSASSTTSEEEGEEEEEEEEEEEEPPRRTLYLRRNGISNWSQRAGLSPGSPPDRKGPEVCPEEPAAAIPAPQAVGSGKVPVQTRQAPAAMASEWRLAQAQQKIRELAINIRMKEELIGELVRTGKAAQALNRQHSQRIRELEQEAERVRAELCEGQRQLRELEGREPQDASERSRLQEFRKRVAAAQSQVQVLKEKKQATERLVSLSAQSETRLQELERNVQLMRRQQGQLQRRLREETEQKRRLETEMNKRQHRVKELELKHEQQQKILKIKTEEIAAFQRKRRSGSNGSVVSLEQQQKIEEQKKWLDQEMEKVLQQRRALEELGEELRKREVILAKKEALMQEKTGLESKRLRSSQALNEDIVRVSSRLEHLEKELSEKSGQLRQGSAQNQQQIRGEIDTLRQEKDSLLKQRLEIDSKLRQGSLLSPEEERTLFQLDEAIEALDAAIEYKNEAITCRQRVLRASASLLSQCEMNLMAKLSYLSSSETRALLCKYFDKVVTLREEQHQQQIAFSELEMQLEEQQRLVYWLEVALERQRLEMDRQLTLQQKEHEQNVQLLLQQGRDHLGEGLADSKRQYEARIHALEKELGRHMWINQELKQKLSAGSTAGQSQGCERRSLCLENRQCLGNEDGLHPAAPEPLWQSSLLEGVSRVWDESRDLVHAPLPLTWKRSSLCSEQGSSEESRVRETTEPPVGRVLPMGEVGLSWNFGPLPKPRWEPRRTSPGMIDVRKNPL | binds | binds | –
2 | Myc-tagged full length TBX3 (protein, UniProt P70324 1-741) MSLSMRDPVIPGTSMAYHPFLPHRAPDFAMSAVLGHQPPFFPALTLPPNGAAALSLPGALAKPIMDQLVGAAETGIPFSSLGPQAHLRPLKTMEPEEDVEDDPKVHLEAKELWDQFHKRGTEMVITKSGRRMFPPFKVRCSGLDKKAKYILLMDIIAADDCRYKFHNSRWMVAGKADPEMPKRMYIHPDSPATGEQWMSKVVTFHKLKLTNNISDKHGFTLAFPSDHATWQGNYSFGTQTILNSMHKYQPRFHIVRANDILKLPYSTFRTYLFPETEFIAVTAYQNDKITQLKIDNNPFAKGFRDTGNGRREKRKQLTLQSMRVFEERHKKETSDESSSEQAAFNCFAQASSPAVSIVGTSNLKDLCPSEAESDAEAESKEEHGPEACDAAKISTTTAEEPGRDKGSPATRAQLFPAEPSRARDTARLDKASPDSRHSPATISSSTRVPGADERRSPGREGPVATKVDEARAIPAKDAFAPLSVQTDATAHLAQGPLPGLGFAPGLAGQQFFNGHPLFLHPGQFAMGGAFSSMAAGMGPLLATVSGASTGVSGLESTAMASAAAAQGLSGASAATLPFHLQQHVLASQGLAMSPFGSLFPYPYTYMAAAAAASTAAASSSVHRHPFLNLNSMRPRLRYSPYSIPVPVPDSSSLLATALPSMASAAGPLDGKAAALAASPASVAVDSGSELNSRSSTLSSGSVSLSPKLCSEKEAATSELQSIQRLVSGLEAKPDRSCSGSP | – | – | binds
